# From PubChem BioAssay AID504327 (National Center for Advancing Translational Sciences (NCATS), 2011)
# By UniProt entry, the sequences of proteins in these tests, tags left out.
# UniProt Q92830, whole entry, looked up: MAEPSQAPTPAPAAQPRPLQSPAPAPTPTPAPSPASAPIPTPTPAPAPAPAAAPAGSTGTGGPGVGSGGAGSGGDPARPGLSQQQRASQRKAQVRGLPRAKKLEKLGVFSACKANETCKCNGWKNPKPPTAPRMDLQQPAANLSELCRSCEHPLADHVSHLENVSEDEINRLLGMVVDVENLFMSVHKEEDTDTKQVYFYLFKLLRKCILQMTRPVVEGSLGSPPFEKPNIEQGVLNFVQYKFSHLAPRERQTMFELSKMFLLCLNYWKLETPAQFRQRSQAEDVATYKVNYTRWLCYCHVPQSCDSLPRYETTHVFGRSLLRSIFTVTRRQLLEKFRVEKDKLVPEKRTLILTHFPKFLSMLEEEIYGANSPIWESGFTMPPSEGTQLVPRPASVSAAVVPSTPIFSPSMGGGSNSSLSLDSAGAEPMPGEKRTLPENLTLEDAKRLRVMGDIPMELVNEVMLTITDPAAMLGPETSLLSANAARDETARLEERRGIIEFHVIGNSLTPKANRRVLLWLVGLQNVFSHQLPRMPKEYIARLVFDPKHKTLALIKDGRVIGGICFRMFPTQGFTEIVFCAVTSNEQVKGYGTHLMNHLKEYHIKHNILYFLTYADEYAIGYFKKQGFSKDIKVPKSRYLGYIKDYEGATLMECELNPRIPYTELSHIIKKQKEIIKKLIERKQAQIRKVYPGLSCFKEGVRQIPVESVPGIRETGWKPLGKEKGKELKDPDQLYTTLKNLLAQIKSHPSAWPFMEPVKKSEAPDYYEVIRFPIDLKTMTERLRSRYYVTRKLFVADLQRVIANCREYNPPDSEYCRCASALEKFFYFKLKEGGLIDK
# Hit rate of the full screen: of about 390,000 compounds, about 820 (0.21%) were called active. This list was built around the results that the source calls inconclusive (neither active nor inactive); the mix of calls is not that of the screen. Calls follow the shape of the dose curve; as a rule, active = well fitted inhibition curve with a large enough effect; inconclusive = small, poorly fitted or top-dose-only effect, or another doubt; inactive = no such curve, though single readings can be large or run the other way. Potencies of inconclusive entries are doubtful fits and often do not repeat.
# Biological target: Histone acetyltransferase KAT2A (Homo sapiens) (UniProt Q92830)
# Assay: qHTS Assay for Inhibitors of GCN5L2
# Conditions: GCN5L2 HAT assay, ThioGlo1 CoA-SH fluorescence; series mostly up to 58.9 µM
# Procedure, shortened: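 Preincubate 20nM GCN5L2 with compound 15 min, RT → add 50uM ThioGlo1 + 75uM H3(1-25) + 70uM acetyl-CoA → read fluorescence 0 and 20 min. Primary qHTS; fluorescent artifacts likely.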
# Potency is read from the fitted curve at half-maximal effect.
row,Compound,Potency
1,O=C(COC(=O)c1cnccn1)NCCc1ccc(Cl)cc1Cl,inactive
2,O=C(Nc1ccnc(-c2ccncc2)n1)C1CC1,inactive
3,O=C(NCCCN1CCOCC1)c1cc(-c2ccc(Cl)c(Cl)c2)on1,inactive
4,O=C(N/N=C/c1cc(Cl)cc([N+](=O)[O-])c1O)NC12CC3CC(CC(C3)C1)C2,"inconclusive: 20 µM [inhibitor, single point]"
5,Cc1ccnc(SCC(=O)c2ccc(Br)cc2)c1C#N,inactive
6,CCOc1ccccc1NC(=O)C1CCCN(S(=O)(=O)c2ccccc2)C1 (stereo unspecified),"inconclusive: 11.2 µM [inhibitor, partial curve]"
7,Nc1ccc(Cl)c(-c2nc3ncccc3o2)c1,"inconclusive: 39.8 µM [inhibitor, single point]"
8,O=C(NCc1cccnc1)Nc1cccc(Cl)c1Cl,"inconclusive: 0.316 µM [inhibitor, full curve, poor fit]"
9,O=C(OC(C(=O)NCC1CCCO1)c1ccc(F)cc1)c1ccco1 (stereo unspecified),"inconclusive: 0.794 µM [inhibitor, single point]"
10,CCc1ccc2c(c1)/C(=N/N(C)C(=S)NC)C(=O)N2,"inconclusive: 2 µM [inhibitor, partial curve, poor fit]"
11,Cc1onc(-c2ccccc2)c1C(=O)Nc1nnc(COc2ccc(Cl)cc2)s1,"inconclusive: 17.8 µM [inhibitor, single point]"
12,CCOC(=O)c1ccc(NC(=O)CN2C(=O)C(=O)N(CC(C)C)C2=O)cc1,"inconclusive: 39.8 µM [inhibitor, single point]"
13,Oc1ccc(-c2nc(-c3ccc(F)cc3)c(-c3ccncc3)[nH]2)cc1,"inconclusive: 0.631 µM [inhibitor, single point]"
14,Cc1ccc(-n2cc(CN3CCNC(=O)CC3)c(-c3cccc(C)c3)n2)cc1,inactive
15,CCOC(=O)c1c(N2C(=O)Nc3ccccc3N2O)sc2c1CCCC2,inactive
16,CCc1ccccc1NC(=O)CCNS(=O)(=O)c1ccc2c(c1)CCCC(=O)N2,inactive
17,COc1ccc(-c2c(C)n([O-])c3c([n+]2=O)CCCC3)cc1,"inconclusive: 1.58 µM [inhibitor, single point]"
18,CC(NC(=O)NC(=O)c1cccc([N+](=O)[O-])c1)C1CC1 (stereo unspecified),"inconclusive: 0.708 µM [inhibitor, single point]"
19,O=C1OC(c2ccccc2)=C/C1=C/N1CCCCC1,"inconclusive: 39.8 µM [inhibitor, single point]"
20,Cc1ccc2cc(C)c3nnc(SCC(=O)NCc4ccco4)n3c2c1,"inconclusive: 3.55 µM [inhibitor, single point]"
21,CCN(CC)CCn1c(NCc2ccc3c(c2)OCO3)nc2ccccc21,inactive
22,O=C(Nc1ccc(F)cc1)C1CCCN1S(=O)(=O)c1ccc(Br)cc1 (stereo unspecified),"inconclusive: 0.708 µM [inhibitor, single point]"
23,CCN(CC(=O)NCc1cccs1)CC(=O)Nc1ccccc1C,inactive

# Structures from the list above that have sulfur:
row,Compound,Potency
5,Cc1ccnc(SCC(=O)c2ccc(Br)cc2)c1C#N,inactive
6,CCOc1ccccc1NC(=O)C1CCCN(S(=O)(=O)c2ccccc2)C1 (stereo unspecified),"inconclusive: 11.2 µM [inhibitor, partial curve]"
10,CCc1ccc2c(c1)/C(=N/N(C)C(=S)NC)C(=O)N2,"inconclusive: 2 µM [inhibitor, partial curve, poor fit]"
11,Cc1onc(-c2ccccc2)c1C(=O)Nc1nnc(COc2ccc(Cl)cc2)s1,"inconclusive: 17.8 µM [inhibitor, single point]"
15,CCOC(=O)c1c(N2C(=O)Nc3ccccc3N2O)sc2c1CCCC2,inactive
16,CCc1ccccc1NC(=O)CCNS(=O)(=O)c1ccc2c(c1)CCCC(=O)N2,inactive
20,Cc1ccc2cc(C)c3nnc(SCC(=O)NCc4ccco4)n3c2c1,"inconclusive: 3.55 µM [inhibitor, single point]"
22,O=C(Nc1ccc(F)cc1)C1CCCN1S(=O)(=O)c1ccc(Br)cc1 (stereo unspecified),"inconclusive: 0.708 µM [inhibitor, single point]"
23,CCN(CC(=O)NCc1cccs1)CC(=O)Nc1ccccc1C,inactive

# The list goes on:

row,Compound,Potency
1,Cc1oc(-c2cccc(Cl)c2)nc1CN1CCC(C(=O)NC(C)C)CC1,inactive
2,CCOC(=O)N1CCC(NC(=O)c2cccc3c2C(=O)N(c2ccc(OC)cc2)C3)CC1,"inconclusive: 25.1 µM [inhibitor, single point]"
3,NC(=O)C1CCCN(S(=O)(=O)c2ccc3ccccc3c2)C1 (stereo unspecified),"inconclusive: 7.08 µM [inhibitor, single point]"
4,CCn1c(/C=C/c2c[nH]c3ccccc23)nc2ccccc2c1=O,inactive
5,CC(=O)O[C@H]1CC[C@H]2[C@@H]3CCc4cc(O)ccc4[C@H]3CC[C@]12C,inactive
6,CN(C)/N=C/c1ccc(OS(=O)(=O)c2ccccc2)cc1,"inconclusive: 8.91 µM [inhibitor, single point]"
7,C[C@H](NC(=O)c1ccco1)C(=O)Nc1ccc(S(=O)(=O)N2CCCC2)cc1,"inconclusive: 35.5 µM [inhibitor, single point]"
8,Cc1ccc(C(CCN(Cc2ccccc2)C(=O)c2ccco2)c2ccco2)cc1 (stereo unspecified),"inconclusive: 22.4 µM [inhibitor, single point]"
9,O=C(Nc1ccc2nc(-c3cccs3)c(-c3cccs3)nc2c1)N1CCOCC1,"inconclusive: 31.6 µM [inhibitor, single point]"
10,Fc1ccc(Br)cc1C1C=C(c2ccc(Br)s2)Nc2ncnn21 (stereo unspecified),"inconclusive: 25.1 µM [inhibitor, partial curve, poor fit]"
11,COc1cc(OC)cc(C(=O)Nc2cc3c(cc2N2CCCCC2)n(C)c(=O)n3C)c1,inactive
12,O=C1CCc2ccccc2N1,"inconclusive: 15.8 µM [inhibitor, partial curve]"
13,COc1cccc(OC)c1C(=O)Nc1sc2c(c1C#N)CCC2,"inconclusive: 39.8 µM [inhibitor, single point]"
14,O=c1nc2s/c(=C\c3ccco3)c(=O)n2nc1Cc1ccc(F)cc1,"inconclusive: 20 µM [inhibitor, partial curve]"
15,COCCn1c(N)c(C#N)c2nc3ccccc3nc21,"inconclusive: 28.2 µM [inhibitor, single point]"
16,CC(C)c1ccc(S(=O)(=O)/N=C2\C=C(NS(=O)(=O)c3ccccc3)C(=O)c3ccccc32)cc1,active: 22.4 µM
17,Cc1ccc(C(=O)O/N=C(\N)c2ccccn2)cc1,inactive
18,CSc1nc(NCCOCCO)c2sc3nc(-c4ccco4)c4c(c3c2n1)CCC4,"inconclusive: 28.2 µM [inhibitor, single point]"
19,CCOC(=O)Cn1c(=O)oc2cc(S(=O)(=O)NC3CCCCC3)ccc21,"inconclusive: 0.631 µM [inhibitor, single point]"
20,C/C=C/c1ccc(OCCCCN(C)Cc2ccccc2)c(OC)c1,"inconclusive: 0.126 µM [inhibitor, full curve, poor fit]"
21,CCN(CCNC(=O)C1=C(C)C(=O)OC12CCC(C)CC2)c1ccccc1 (stereo unspecified),"inconclusive: 0.708 µM [inhibitor, full curve, poor fit]"
22,CNc1n[nH]c(=S)s1,"inconclusive: 35.5 µM [inhibitor, single point]"
23,CCCCn1c(=O)c2[nH]c(C34CC5CC(CC3C5)C4)nc2n(CCCO)c1=O,"inconclusive: 2.24 µM [inhibitor, partial curve, poor fit]"
